PubChem BioAssay AID1159584, Peter MacCallum Cancer Centre | 2016

Aim: 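Knock-downs that harm CDH1-null cells more than parental MCF10A cells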 (primary screen)
Cell system: human MCF10A breast epithelial cells, parental and CDH1-null
Reagent: siRNA against human genes
Measured: 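Cell viability by CellTiter-Glo ATP luminescence, each line scaled to the mean of mock wells across plates, then CDH1-null over parental ratio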
Scale: CDH1-null / parental viability ratio: higher = CDH1-null cells survive relatively better than parental; CDH1-null viability vs mock: higher = more viable CDH1-null cells; parental viability vs mock: higher = more viable parental cells
Shown is an unselected part of about 18,000 reagents. The numbers tell different reagents against one gene apart. Not stated in the record: the amount of reagent, the time to read-out.

gene	siRNA no.	CDH1-null / parental viability ratio	CDH1-null viability vs mock (fraction of mock)	parental viability vs mock (fraction of mock)
TGFBR2 (GeneID 7048)	1	1.09	1.09	1
NUSAP1 (GeneID 51203)	1	0.92	0.44	0.48
KIAA1755 (GeneID 85449)	1	0.97	0.6	0.62
ZNF670 (GeneID 93474)	1	0.97	0.97	1
C6 (GeneID 729)	1	0.98	0.9	0.92
RNF183 (GeneID 138065)	1	0.81	0.87	1.08
PHACTR1 (GeneID 221692)	1	0.88	0.74	0.84
HDHD2 (GeneID 84064)	1	1.06	0.84	0.79
FHL2 (GeneID 2274)	1	1	0.66	0.66
LILRA6 (GeneID 79168)	1	1.11	0.8	0.72
ADARB2 (GeneID 105)	1	0.87	1.05	1.21
PLA2R1 (GeneID 22925)	1	0.82	0.66	0.8
ADPRS (GeneID 54936)	1	0.91	0.81	0.89
FPR3 (GeneID 2359)	1	0.61	0.56	0.92
PRKCA (GeneID 5578)	1	0.67	0.64	0.95
HSD11B1 (GeneID 3290)	1	1.02	1	0.98
MYL1 (GeneID 4632)	1	0.78	0.38	0.49
MAML1 (GeneID 9794)	1	0.92	0.82	0.89
SNX29 (GeneID 92017)	1	0.97	0.72	0.74
SNX29 (GeneID 92017)	2	1.06	0.9	0.85
LZTS2 (GeneID 84445)	1	1.04	0.59	0.57
COX7B (GeneID 1349)	1	1.33	1.38	1.04
YJU2B (GeneID 81576)	1	1.26	0.78	0.62

Continued, starting with the last 7 of the part before.
gene	siRNA no.	CDH1-null / parental viability ratio	CDH1-null viability vs mock (fraction of mock)	parental viability vs mock (fraction of mock)
MYL1 (GeneID 4632)	1	0.78	0.38	0.49
MAML1 (GeneID 9794)	1	0.92	0.82	0.89
SNX29 (GeneID 92017)	1	0.97	0.72	0.74
SNX29 (GeneID 92017)	2	1.06	0.9	0.85
LZTS2 (GeneID 84445)	1	1.04	0.59	0.57
COX7B (GeneID 1349)	1	1.33	1.38	1.04
YJU2B (GeneID 81576)	1	1.26	0.78	0.62
HNRNPUL1 (GeneID 11100)	1	1.01	1.04	1.03
CENPO (GeneID 79172)	1	0.8	0.74	0.92
SUZ12 (GeneID 23512)	1	1.2	0.9	0.75
SLC4A7 (GeneID 9497)	1	0.87	0.67	0.77
CCDC90B (GeneID 60492)	1	0.94	0.85	0.9
TMEM219 (GeneID 124446)	1	1.39	0.32	0.23
SDE2 (GeneID 163859)	1	1.22	0.39	0.32
POLR2K (GeneID 5440)	1	0.86	0.62	0.72
SMTNL2 (GeneID 342527)	1	1.22	0.44	0.36
ISCU (GeneID 23479)	1	1.17	0.7	0.6
IL21 (GeneID 59067)	1	0.63	0.49	0.78
MCUB (GeneID 55013)	1	0.89	0.68	0.76
NOX3 (GeneID 50508)	1	0.99	0.86	0.87
SKAP1 (GeneID 8631)	1	1	0.9	0.9
JHY (GeneID 79864)	1	0.85	0.7	0.82
PFKM (GeneID 5213)	1	0.8	0.83	1.04
ZNF552 (GeneID 79818)	1	1.38	0.58	0.42
SEC61A2 (GeneID 55176)	1	1.04	0.48	0.46
OTULINL (GeneID 54491)	1	0.89	0.76	0.85
ENAM (GeneID 10117)	1	1.23	1.08	0.88
GCN1 (GeneID 10985)	1	0.98	0.86	0.88
ANGPT1 (GeneID 284)	1	0.96	0.54	0.56
SUGP1 (GeneID 57794)	1	0.67	0.61	0.91
NDUFAF7 (GeneID 55471)	1	1.06	0.82	0.77
TMEM74B (GeneID 55321)	1	0.85	0.72	0.85
RUNX1T1 (GeneID 862)	1	0.9	0.8	0.89
MRPS9 (GeneID 64965)	1	0.8	0.67	0.84
CXCL2 (GeneID 2920)	1	0.81	0.5	0.62
LRRC73 (GeneID 221424)	1	0.92	0.59	0.64
HEMK2 (GeneID 29104)	1	0.9	0.7	0.78
TRAM2 (GeneID 9697)	1	0.83	0.5	0.6
CMTM7 (GeneID 112616)	1	0.97	0.72	0.74
TACC1 (GeneID 6867)	1	0.92	0.8	0.87
HELLS (GeneID 3070)	1	1.18	0.97	0.82
ALDH3B2 (GeneID 222)	1	0.94	0.77	0.82
ZNF267 (GeneID 10308)	1	1.02	1	0.98
GSTO1 (GeneID 9446)	1	1.04	0.94	0.9
CT45A5 (GeneID 441521)	1	1.55	1.02	0.66
DYDC2 (GeneID 84332)	1	0.93	0.64	0.69
SPMIP5 (GeneID 143379)	1	0.76	0.74	0.98
SLU7 (GeneID 10569)	1	1.07	0.29	0.27
GOPC (GeneID 57120)	1	1.05	0.78	0.74
AVPR2 (GeneID 554)	1	0.95	0.8	0.84
MPND (GeneID 84954)	1	0.81	0.5	0.62
RNF135 (GeneID 84282)	1	0.99	0.99	1
